Results published in PubChem BioAssay AID2662 (National Center for Advancing Translational Sciences (NCATS), 2010).
About 110 (0.038%) of roughly 290,000 compounds were called active. This list was built around the results that the source calls inconclusive (neither active nor inactive); the mix of calls is not that of the screen. The call rests on the fitted dose curve; in most records, active means well fitted inhibition curve with a large enough effect in the polarisation, with a control signal flat (not every such curve was filed as active); inconclusive means small, poorly fitted or top-dose-only effect, or effect the other way, or a change in a side signal; inactive means no such curve, though single readings can be large or run the other way; the % refers to the polarisation. A potency beside an inconclusive call is a rough fit, not a confirmed value. A note “side channel” means that the fit belongs to a control or component signal, not to the main read-out.

Amino acid sequences for entries named in this document (tags omitted).
UniProt Q03164, whole entry, looked up: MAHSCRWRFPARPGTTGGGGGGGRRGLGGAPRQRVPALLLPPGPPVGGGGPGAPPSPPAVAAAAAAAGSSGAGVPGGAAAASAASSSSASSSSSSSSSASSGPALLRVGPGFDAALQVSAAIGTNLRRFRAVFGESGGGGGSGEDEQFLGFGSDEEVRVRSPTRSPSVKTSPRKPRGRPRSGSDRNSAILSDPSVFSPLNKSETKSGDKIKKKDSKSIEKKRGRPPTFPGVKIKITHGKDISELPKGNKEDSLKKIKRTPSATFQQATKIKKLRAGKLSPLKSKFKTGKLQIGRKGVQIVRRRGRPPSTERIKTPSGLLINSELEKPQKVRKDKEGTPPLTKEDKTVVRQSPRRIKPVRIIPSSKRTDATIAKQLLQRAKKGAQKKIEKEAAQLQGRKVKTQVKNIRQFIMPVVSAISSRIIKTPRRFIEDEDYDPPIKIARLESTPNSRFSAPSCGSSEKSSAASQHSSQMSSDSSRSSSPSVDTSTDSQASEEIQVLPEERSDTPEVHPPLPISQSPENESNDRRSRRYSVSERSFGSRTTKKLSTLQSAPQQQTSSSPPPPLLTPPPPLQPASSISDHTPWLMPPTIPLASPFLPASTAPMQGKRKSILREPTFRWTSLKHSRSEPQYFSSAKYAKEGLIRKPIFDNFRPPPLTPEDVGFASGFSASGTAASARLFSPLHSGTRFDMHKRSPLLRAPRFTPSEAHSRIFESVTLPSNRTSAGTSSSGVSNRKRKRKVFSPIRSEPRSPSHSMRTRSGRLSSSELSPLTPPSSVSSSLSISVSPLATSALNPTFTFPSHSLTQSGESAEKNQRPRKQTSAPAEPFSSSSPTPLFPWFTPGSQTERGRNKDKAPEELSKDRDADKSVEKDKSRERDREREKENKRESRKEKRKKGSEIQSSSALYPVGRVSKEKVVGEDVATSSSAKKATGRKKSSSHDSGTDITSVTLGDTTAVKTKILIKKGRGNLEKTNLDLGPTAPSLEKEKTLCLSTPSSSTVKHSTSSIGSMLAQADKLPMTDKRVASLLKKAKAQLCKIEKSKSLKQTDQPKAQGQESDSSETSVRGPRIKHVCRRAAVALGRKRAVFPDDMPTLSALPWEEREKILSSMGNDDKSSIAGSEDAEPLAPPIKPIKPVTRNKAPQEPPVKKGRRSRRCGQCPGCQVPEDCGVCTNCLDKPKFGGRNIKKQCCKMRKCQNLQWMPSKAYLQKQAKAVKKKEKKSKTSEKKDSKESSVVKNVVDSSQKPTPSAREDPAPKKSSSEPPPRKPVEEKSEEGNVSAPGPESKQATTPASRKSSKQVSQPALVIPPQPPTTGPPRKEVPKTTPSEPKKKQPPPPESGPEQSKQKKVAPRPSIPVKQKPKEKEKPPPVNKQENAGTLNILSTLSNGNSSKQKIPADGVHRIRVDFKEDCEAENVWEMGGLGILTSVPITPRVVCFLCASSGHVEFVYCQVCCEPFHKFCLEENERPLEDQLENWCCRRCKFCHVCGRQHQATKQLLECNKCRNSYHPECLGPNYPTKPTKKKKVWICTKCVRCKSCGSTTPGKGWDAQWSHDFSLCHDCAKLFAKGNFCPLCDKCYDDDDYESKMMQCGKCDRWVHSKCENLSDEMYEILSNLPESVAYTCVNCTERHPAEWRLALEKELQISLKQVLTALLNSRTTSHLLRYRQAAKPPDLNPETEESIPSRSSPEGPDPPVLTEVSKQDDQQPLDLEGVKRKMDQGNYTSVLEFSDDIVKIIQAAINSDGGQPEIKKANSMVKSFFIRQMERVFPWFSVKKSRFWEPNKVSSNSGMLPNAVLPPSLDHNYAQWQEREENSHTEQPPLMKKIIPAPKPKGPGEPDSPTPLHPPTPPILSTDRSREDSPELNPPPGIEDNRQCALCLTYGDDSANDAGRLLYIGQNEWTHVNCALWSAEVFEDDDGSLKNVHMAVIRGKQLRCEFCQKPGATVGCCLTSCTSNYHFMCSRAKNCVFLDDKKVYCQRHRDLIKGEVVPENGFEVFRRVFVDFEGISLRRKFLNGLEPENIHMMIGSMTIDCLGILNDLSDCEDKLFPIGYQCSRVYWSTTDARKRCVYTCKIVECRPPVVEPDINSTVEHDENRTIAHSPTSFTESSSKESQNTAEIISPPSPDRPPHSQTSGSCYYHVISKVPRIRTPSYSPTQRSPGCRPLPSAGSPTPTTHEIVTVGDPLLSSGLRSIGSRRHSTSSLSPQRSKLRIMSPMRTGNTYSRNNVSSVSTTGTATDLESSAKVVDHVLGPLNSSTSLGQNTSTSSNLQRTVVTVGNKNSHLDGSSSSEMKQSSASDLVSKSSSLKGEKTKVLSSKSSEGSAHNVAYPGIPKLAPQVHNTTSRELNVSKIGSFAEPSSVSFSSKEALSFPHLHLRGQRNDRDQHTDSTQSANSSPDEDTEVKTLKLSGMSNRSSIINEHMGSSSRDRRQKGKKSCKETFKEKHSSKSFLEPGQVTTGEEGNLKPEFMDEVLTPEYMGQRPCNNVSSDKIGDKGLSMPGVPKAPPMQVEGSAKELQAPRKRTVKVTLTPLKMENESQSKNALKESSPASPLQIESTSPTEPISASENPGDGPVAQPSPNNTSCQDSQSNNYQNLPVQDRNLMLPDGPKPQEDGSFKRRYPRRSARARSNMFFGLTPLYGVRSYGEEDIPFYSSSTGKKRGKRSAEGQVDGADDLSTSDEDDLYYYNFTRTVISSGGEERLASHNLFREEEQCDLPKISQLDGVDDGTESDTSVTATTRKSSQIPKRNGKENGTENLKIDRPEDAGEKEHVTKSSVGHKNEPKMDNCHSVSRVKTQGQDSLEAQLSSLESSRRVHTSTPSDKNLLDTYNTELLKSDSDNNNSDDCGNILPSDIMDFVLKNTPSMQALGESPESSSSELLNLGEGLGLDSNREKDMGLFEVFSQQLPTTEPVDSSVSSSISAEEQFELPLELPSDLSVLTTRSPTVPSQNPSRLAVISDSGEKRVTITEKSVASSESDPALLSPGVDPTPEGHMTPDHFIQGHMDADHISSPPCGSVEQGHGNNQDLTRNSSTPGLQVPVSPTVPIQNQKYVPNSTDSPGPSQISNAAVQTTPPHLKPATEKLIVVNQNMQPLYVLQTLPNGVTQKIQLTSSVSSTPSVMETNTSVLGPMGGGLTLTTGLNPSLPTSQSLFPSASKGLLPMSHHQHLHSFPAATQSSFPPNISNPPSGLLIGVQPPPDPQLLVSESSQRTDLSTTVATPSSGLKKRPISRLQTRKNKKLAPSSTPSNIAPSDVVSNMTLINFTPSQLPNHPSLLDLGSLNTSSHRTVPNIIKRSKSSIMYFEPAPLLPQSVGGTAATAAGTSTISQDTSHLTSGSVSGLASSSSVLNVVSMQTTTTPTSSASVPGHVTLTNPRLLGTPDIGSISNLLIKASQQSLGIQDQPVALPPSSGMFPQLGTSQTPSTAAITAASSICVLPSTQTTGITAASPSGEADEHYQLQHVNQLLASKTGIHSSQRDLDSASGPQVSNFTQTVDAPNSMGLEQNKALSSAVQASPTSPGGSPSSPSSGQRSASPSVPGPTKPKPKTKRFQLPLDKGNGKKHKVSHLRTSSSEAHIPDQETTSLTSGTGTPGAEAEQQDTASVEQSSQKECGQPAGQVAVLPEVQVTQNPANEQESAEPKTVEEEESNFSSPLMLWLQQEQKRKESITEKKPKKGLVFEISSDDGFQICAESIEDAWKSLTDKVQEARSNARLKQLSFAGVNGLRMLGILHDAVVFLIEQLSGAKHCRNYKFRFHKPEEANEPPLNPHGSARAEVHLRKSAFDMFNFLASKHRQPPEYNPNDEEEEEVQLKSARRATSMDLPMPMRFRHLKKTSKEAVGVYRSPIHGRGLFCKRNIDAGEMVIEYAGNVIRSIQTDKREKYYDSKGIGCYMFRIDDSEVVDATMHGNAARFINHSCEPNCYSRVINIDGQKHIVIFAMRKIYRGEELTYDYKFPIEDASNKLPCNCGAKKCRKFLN

target: Histone-lysine N-methyltransferase 2A (Homo sapiens) (UniProt Q03164); test: qHTS Fluorescence Polarization Assay for Inhibitors of MLL CXXC domain - DNA interaction; details: MLL-CXXC / FITC-HOXA9 DNA fluorescence polarization; series mostly up to 115 µM
Procedure, shortened: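 Purified MLL-CXXC (added from a 7 uM solution) was preincubated 5 min at ambient with pinned compounds in 50 mM Tris-HCl pH 7.5, 50 mM NaCl, 1 mM DTT, 0.05% BSA. Fluorescein-labeled HOX-A9 DNA (50 nM solution) followed, 30 min, then polarization read.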
Potency means the concentration at half of the fitted maximal effect.

Row | Compound | Potency
1 | Cc1c(N=Cc2ccc[nH]2)c(=O)n(-c2ccccc2)n1C | inactive
2 | CC(=O)Nc1ccc(C(=O)OCC(=O)NC(=O)NC(C)(C)C)cc1 | inconclusive: 31.6 µM [quencher, side channel, partial curve]
3 | Cc1ccc(S(=O)(=O)N/N=C/c2cn(C)nc2C)cc1 | inconclusive: 7.94 µM [inhibitor, full curve, poor fit]
4 | COc1ccc(NC(=O)C2CCCN(c3ncccn3)C2)cc1 (stereo not given) | inactive
5 | COCCn1c(-c2ccc(Cl)cc2)nc2c(c(=O)c3ccccc3n2C)c1=O | inactive
6 | Cc1cccc(-n2cc(-c3ccccc3)[nH]c2=S)c1 | inconclusive: 89.1 µM [inhibitor, single point]
7 | N/C(=N/OC(=O)c1ccccc1F)c1nonc1N | inactive
8 | COc1ccc(-c2nnc(-c3cccs3)o2)cc1OC | inactive
9 | COc1ccccc1CCC(=O)Nc1cccc(S(=O)(=O)N2CCCC2)c1 | inconclusive: 14.1 µM [quencher, side channel, single point]
10 | COC(=O)c1[nH]c2ccc(C)cc2c1NC(=O)c1ccccc1[N+](=O)[O-] | inconclusive: 1.41 µM [fluorescent, side channel, full curve, poor fit]
11 | CC[C@H](NC(=O)c1c(C)c(-c2ccccc2)nc2ccccc12)c1ccccc1 | inconclusive: 15.8 µM [fluorescent, side channel, single point]
12 | C#CCNC(=O)C1=C[C@H](c2ccc3c(c2)OCO3)C[C@H](OCc2ccc(CO)cc2)O1 | inconclusive: 17.8 µM [inhibitor, full curve, poor fit]
13 | CC(C)(C)NC(=O)c1ccc(COc2ccc(Cl)cc2Cl)o1 | inconclusive: 14.1 µM [fluorescent, side channel, single point]
14 | COc1ccc(CN2CCCC(C(=O)N(C)Cc3ccccc3)C2)cc1OC (stereo not given) | inactive
15 | Cc1cccc(C)c1OCC(O)CN1CCC(CN2C(=O)c3cccc4cccc(c34)C2=O)CC1 (stereo not given) | inconclusive: 39.8 µM [quencher, side channel, partial curve]
16 | COc1ccc2cc(C(=O)N/N=C/c3sc4ccccc4c3O)ccc2c1 | inconclusive: 15.8 µM [fluorescent, side channel, partial curve]
17 | Cc1c(-n2c(SCC(=O)O)nnc2-c2ccccc2Cl)c(=O)n(-c2ccccc2)n1C | inactive
18 | Cc1ccc(C(=O)N2CCC(C)CC2)cc1S(=O)(=O)N1CCCCC1 | inconclusive: 14.1 µM [fluorescent, side channel, single point]
19 | O=c1c2c(-c3ccccc3)csc2nc2c3ccccc3c(NCCN3CCOCC3)nn12 | inconclusive: 79.4 µM [quencher, side channel, single point]
20 | CCOc1cccc(-c2nn3c(-c4cc(C)[nH]n4)nnc3s2)c1 | inactive
21 | COc1ccc(C)cc1NC(=O)C1CCC(CNc2c(N3CCOCC3)c(=O)c2=O)CC1 (stereo not given) | inconclusive: 63.1 µM [fluorescent, side channel, single point]
22 | O=C(O)c1cc(Nc2cc(Cl)c3nonc3c2[N+](=O)[O-])ccc1O | inconclusive: 44.7 µM [inhibitor, single point]

Row | Compound | Potency
23 | N#C/C(=C/c1ccccc1OCc1ccc(F)cc1)c1ccc(C(=O)O)cc1 | inconclusive: 31.6 µM [inhibitor, partial curve]
24 | COc1cccc(C(=O)NC2CC3CCCC(C2)N3CC(=O)Nc2ccccc2)c1 (stereo not given) | inactive
25 | COc1ccc(C(=O)Oc2ccc(N(C)S(=O)(=O)c3ccccc3)cc2)cc1[N+](=O)[O-] | inconclusive: 89.1 µM [quencher, side channel, single point]
26 | Cc1onc(-c2ccccc2Cl)c1C(=O)NCc1ccc2c(c1)cc(C)n2C | inactive
27 | COc1ccc(Cl)cc1NC(=S)Nc1cccnc1 | inconclusive: 89.1 µM [inhibitor, single point]
28 | c1ccc(-c2ccc(-c3cnc4n3CCCCC4)cc2)cc1 | inconclusive: 12.6 µM [quencher, side channel, partial curve]
29 | Cn1cccc1/C=C1\SC(=O)N(c2ccccc2)C1=O | inconclusive: 89.1 µM [fluorescent, side channel, single point]
30 | Cc1ccc(C2C3=C(CC(C)(C)CC3=O)Nc3n[nH]c(C)c32)cc1 (stereo not given) | inactive
31 | CCc1nnc(NC(=O)c2nc(S(=O)(=O)Cc3cccc(C)c3)ncc2Cl)s1 | inconclusive: 70.8 µM [inhibitor, single point]
32 | CC1(C)Cc2nc3oc4c(NCc5ccccc5)ncnc4c3cc2CO1 | inactive
33 | Cc1ccc2oc(=O)n(CCOc3ccccc3Cl)c2c1 | inconclusive: 1 µM [inhibitor, full curve, poor fit]
34 | N#CC1=C(N)N2C(=C(C#N)C1c1ccccc1)Sc1ccccc12 (stereo not given) | inconclusive: 35.5 µM [fluorescent, side channel, single point]
35 | CC(=O)Oc1c(-c2ccco2)oc2ccccc2c1=O | inconclusive: 5.01 µM [fluorescent, side channel, partial curve]
36 | O=C1OC(/C(=C\Nc2ccccc2)[N+](=O)[O-])c2ccccc21 (stereo not given) | inconclusive: 50.1 µM [inhibitor, partial curve]
37 | Cc1ccc(S(=O)(=O)/N=C2\C=C(Nc3cccc(C(=O)O)c3)C(=O)c3ccccc32)cc1 | inconclusive: 31.6 µM [quencher, side channel, partial curve, poor fit]
38 | CC1(C)CC(N2CCCCC2)=CC(=[N+]2CCCCC2)C1 | inactive
39 | Cn1cc(C=C2C(=O)CC(C)(C)CC2=O)c2ccccc21 | inconclusive: 63.1 µM [inhibitor, single point]
40 | COc1ccc(-c2nc3cccc(C)n3c2NCc2ccco2)cc1OC | inactive
41 | Cc1ccc(/C=C2/SC(=O)NC2=S)o1 | inconclusive: 35.5 µM [fluorescent, side channel, partial curve]
42 | COc1cc(NS(=O)(=O)c2ccc(C)cc2C)cc(OC)c1OC | inactive
43 | CCCCN1CCNC1=S | inconclusive: 50.1 µM [fluorescent, side channel, single point]
44 | COc1ccc(-c2cc(-c3ccccc3O)[nH]n2)cc1 | inconclusive: 5.62 µM [inhibitor, full curve, poor fit]

Row | Compound | Potency
45 | C=CCOC(=O)C1CC=CCC1C(=O)Oc1ccc(F)cc1F (stereo not given) | inactive
46 | CCN1C(=O)[C@@H]2Cc3c([nH]c4ccccc34)C(c3cc(OC)c(OC)c(OC)c3)N2C1=S (stereo not given in full) | inconclusive: 10 µM [fluorescent, side channel, partial curve]
47 | O=c1oc2cc(O)ccc2cc1-c1ccccc1 | inactive
48 | COc1cccc(N2CCN(C(=O)c3cc4c(OC)c(OC)c(OC)cc4[nH]3)CC2)c1 | inconclusive: 44.7 µM [fluorescent, side channel, single point]
49 | CC(C)(C)c1csc(NNC(=O)c2ccc(Br)cc2)n1 | inactive
50 | O=C(Nc1cccc(Cl)c1)Nc1nnc(CC2=CCCCC2)s1 | inconclusive: 31.6 µM [fluorescent, side channel, single point]
51 | Cc1cccc(C(=O)NNS(=O)(=O)c2ccccc2)c1O | inactive
52 | O=S(=O)(Nc1cccc(-c2cn3ccsc3n2)c1)c1ccc(F)cc1 | inactive
53 | COc1ccc(C2C=C(c3ccc(Br)s3)Nc3ncnn32)cc1OC (stereo not given) | inconclusive: 35.5 µM [fluorescent, side channel, partial curve]
54 | O=C1NN(c2ccccc2)C(=O)/C1=C\c1ccc2c(c1)OCO2 | inconclusive: 35.5 µM [inhibitor, partial curve]
55 | O=c1c2ccccc2nc2c3ccccc3c(NCc3cccnc3)nn12 | inconclusive: 11.2 µM [quencher, side channel, partial curve]
56 | Cc1cccc(NC(=S)N2CCCCC2c2cccnc2)c1C (stereo not given) | inconclusive: 100 µM [quencher, side channel, partial curve, poor fit]
57 | CN(C)CCCn1cnc2c(c1=N)C(c1ccccc1)c1ccc3ccccc3c1O2 (stereo not given) | inconclusive: 12.6 µM [inhibitor, single point]
58 | Cc1cc(C(=O)CSc2nc3ccccc3c(=O)n2C)c(C)n1CC1CCCO1 (stereo not given) | inconclusive: 11.2 µM [fluorescent, side channel, full curve, poor fit]
59 | O=C(O)COc1ccccc1-c1ccccc1 | inactive
60 | CCc1ccc(/C=C2\Oc3c(ccc(O)c3CN3CCN(CCO)CC3)C2=O)cc1 | inconclusive: 31.6 µM [fluorescent, side channel, single point]
61 | COc1ccc(C(CNC(=O)C2CCN(S(=O)(=O)c3ccc(F)cc3)CC2)N(C)C)cc1 (stereo not given) | inconclusive: 89.1 µM [fluorescent, side channel, single point]
62 | CCc1ccccc1NC(=S)N1CCN(c2ccccc2F)CC1 | inconclusive: 3.16 µM [fluorescent, side channel, full curve]
63 | C/C(=N\Nc1ncc(Cl)cc1Cl)c1ccccn1 | inconclusive: 20 µM [fluorescent, side channel, partial curve]
64 | Cc1ccc(C(NC(=O)N2CCCCC2)=C(Cl)Cl)cc1F | inconclusive: 70.8 µM [fluorescent, side channel, single point]
65 | C=CCN(CC=C)CC(O)CN(c1cc([N+](=O)[O-])ccc1OC)S(=O)(=O)c1ccccc1 (stereo not given) | inconclusive: 35.5 µM [quencher, side channel, single point]

Gathered by group: the compounds so far with a furan ring, fused or not
Row | Compound | Potency
13 | CC(C)(C)NC(=O)c1ccc(COc2ccc(Cl)cc2Cl)o1 | inconclusive: 14.1 µM [fluorescent, side channel, single point]
32 | CC1(C)Cc2nc3oc4c(NCc5ccccc5)ncnc4c3cc2CO1 | inactive
35 | CC(=O)Oc1c(-c2ccco2)oc2ccccc2c1=O | inconclusive: 5.01 µM [fluorescent, side channel, partial curve]
40 | COc1ccc(-c2nc3cccc(C)n3c2NCc2ccco2)cc1OC | inactive
41 | Cc1ccc(/C=C2/SC(=O)NC2=S)o1 | inconclusive: 35.5 µM [fluorescent, side channel, partial curve]
